Measurements reported in publication PMC12040169 (PLOS Biology, 2025).
The other results are listed elsewhere or left out.

These molecules were tested on T1, CTL2-GFP (C. trachomatis L2/434/Bu, GFP-expressing). Details: bulk GFP, single well; 28.5 h, 10 µM; inhibitor.
T1 construct: L2/434/Bu, GFP-expressing
Design: species or system HeLa; Intracellular C. trachomatis growth in HeLa cells, bulk GFP fluorescence relative to DMSO

SMILES	% of control remaining
FC(F)(F)c1nc2ccccc2nc1Sc1nc[nH]n1 [CBK093808]	106.415%
CCCNc1nc(-c2ccc(C)c(C)c2)cn2ccnc12 [CBK066627]	147.151%
CCCC(=O)c1ccc(S(=O)(=O)N2CCCN(Cc3cccc4cccnc34)CC2)cc1 [CBK062909]	129.516%
CC1=C(C)CC(C(=O)Nc2ccc3c(c2)oc2ccccc23)C(C(=O)O)C1 (stereo not drawn) [CBK263533]	118.101%
COCC(=O)NC(C)c1nc2ccccc2n1Cc1ccccc1C (stereo not drawn) [CBK269885]	128.274%
COc1ccc(-c2cnc(NCC3CC3)c(C(=O)N3CCN(C)CC3)c2)cc1 [CBK076327]	97.5923%
O=C(c1ccc2[nH]ccc2c1)N1CCN(CC2CCOC2)CC1 (stereo not drawn) [CBK304866]	96.3941%
O=C(CSc1nnc(-c2ccc(Cl)cc2Cl)[nH]1)Nc1ccc(F)cc1 [CBK267651]	122.017%
CC(NC(=O)CCc1ccncc1)c1nc2ccccc2s1 (stereo not drawn) [CBK281666]	110.109%
c1ccc(CSc2ncnc3c2oc2ccccc23)cc1 [CBK287398]	156.907%
COc1cccc([C@H]2CN(C(=O)c3ccccc3)[C@@H]3CCN(Cc4ccccc4)C[C@H]23)c1 [CBK285624]	114.747%
CN(CC(O)CO)C(=O)c1coc(COc2cccc(F)c2)n1 (stereo not drawn) [CBK306854]	106.787%
COc1ccc2[nH]cc(CCNC(=O)c3ccc(C)nc3N3CCOCC3)c2c1 [CBK106203]	128.842%
CC(C)n1c(=O)n(CC(=O)N2CCCCC2)c2cccnc21 [CBK283526]	117.766%
CC(C)S(=O)(=O)n1ccn(-c2ccc(Oc3ccccc3)cc2)c1=O [CBK106644]	105.35%
O=C(O)CN(CC(=O)O)S(=O)(=O)c1ccc(Cl)cc1 [CBK261526]	103.114%
COc1ccc2c(c1)c(C)c(C(=O)NC(C)Cc1ccccn1)n2C (stereo not drawn) [CBK281425]	120.042%
CCOc1ccccc1NC(=O)c1ccc(CS(=O)(=O)c2ccc(C)cc2)cc1 [CBK268572]	145.37%
COCc1[nH]nc(O)c1Cc1c(Cl)cccc1Cl [CBK105305]	104.792%
CCN(CC)S(=O)(=O)c1cc(S(=O)(=O)N(CC)CC)c2cccc3c2c1NC(=O)O3 [CBK005022]	105.96%
O=C(O)CCCC(=O)OCc1ccco1 [CBK260933]	115.536%
CCC(CO)Nc1cncc(-c2cccc(N)c2)n1 (stereo not drawn) [CBK065278]	169.612%
Cc1ccc(CCC(=O)Nc2ccc(S(N)(=O)=O)cc2)o1 [CBK269031]	152.24%
CNC(=O)C1(Cc2ccc(-c3cccc(C)c3)cc2)CCN(C(=O)CC(C)(C)C)CC1 [CBK285923]	119.438%
CNC(=O)CN(C)C(=O)c1coc(COc2ccc3sc(C)nc3c2)n1 [CBK307571]	130.328%
CCCC(NC(=O)Nc1ccnn1CC(C)C)c1nccn1C (stereo not drawn) [CBK307444]	182.625%

SMILES	% of control remaining
COc1ccc(S(=O)(=O)N2CCOCC2)cc1C(=O)N1CCCC(C)C1 (stereo not drawn) [CBK305011]	104.004%
CC(C)(C)c1ccc(-c2nc3ncccc3cc2N)cc1 [CBK067611]	168.862%
CC1Cc2ccccc2N1C(=O)CSc1nnc(N)s1 (stereo not drawn) [CBK269530]	142.776%
O=C(c1cc(F)cc(F)c1)N1CC[C@@H](c2ccccc2)[C@H](O)C1 [CBK283715]	125.838%
O=C(COc1ccc2ccccc2c1Br)NCc1ccccn1 [CBK267361]	146.092%
CCNC(=O)N1CC2(CCN(Cc3ccc(OC(F)(F)F)cc3)CC2)c2ccccc21 [CBK126688]	98.6084%
Cc1ccc(O)c(NC(=O)c2nc3nc(C)cc(C(F)F)n3n2)c1 [CBK266186]	155.181%
O=C(COc1ccc2ccccc2c1)Nc1cc([N+](=O)[O-])ccc1F [CBK263780]	127.89%
CCOC(=O)c1ccc(-c2ccc(/C=N/N=C3\NC(=O)C(CC(=O)O)S3)o2)cc1 (stereo not drawn) [CBK264474]	124.031%
Cc1ccc(NS(=O)(=O)c2ccc(OC(F)(F)F)cc2)c(CO)c1 [CBK043267]	115.291%
O=C(OCc1ccccc1)N1CCN(c2ccccc2)CC1 [CBK200241]	150.025%
Nn1c(SCCCCSc2nnc(C(F)(F)F)n2N)nnc1C(F)(F)F [CBK267946]	126.103%
CCCc1cc(CNC(=O)c2ccnn2C(C)C)on1 [CBK282047]	170.441%
O=c1nc(CNc2ccc(Br)cc2)[nH][nH]1 [CBK288403]	109.016%
COc1ccc(CC(=O)N2CC=C(c3ccc(C)o3)CC2)cc1 [CBK283572]	98.7474%
CN1CCN(C(=O)CN(c2cccc([N+](=O)[O-])c2)S(=O)(=O)c2ccccc2)CC1 [CBK264121]	125.036%
CCCN1C(=O)COc2ccc(-c3noc(-c4ccccn4)n3)cc21 [CBK288596]	133.919%
CCn1cc(C(=O)O)c(=O)c2cc(F)c(N3CCN(C(=S)NC(=O)c4c(-c5ccccc5)noc4C)CC3)cc21 [CBK267490]	137.155%
N#Cc1c(F)cccc1N1CCCC(C(=O)Nc2nncs2)C1 (stereo not drawn) [CBK306335]	106.101%
COc1ccccc1CCCNC(=O)c1csc(C(C)=O)c1 [CBK282513]	139.714%
O=C(NC1CCCOC1)C1CCN(Cc2ccccc2Cl)CC1 (stereo not drawn) [CBK282520]	180.583%
Cc1ccc(N2CCCC2=O)cc1S(=O)(=O)NC1C2CCCCC21 (stereo not drawn) [CBK282840]	130.409%
Cc1noc2nc(C3CCCN(C(=O)C4CC4)C3)cc(C(F)F)c12 (stereo not drawn) [CBK284608]	172.126%
CCOC(=O)c1cnc(SCc2cccc([N+](=O)[O-])c2)nc1N [CBK266449]	143.606%
COCc1nc(CN2CCNC(=O)C2c2ccccc2C(F)(F)F)no1 (stereo not drawn) [CBK304157]	135.472%

Part of the list above, as labelled records:
CCCN1C(=O)COc2ccc(-c3noc(-c4ccccn4)n3)cc21 [CBK288596]
  % of control remaining: 133.919%
N#Cc1c(F)cccc1N1CCCC(C(=O)Nc2nncs2)C1 (stereo not drawn) [CBK306335]
  % of control remaining: 106.101%
